Some of these results come from one statement about several compounds together.
Target: T1, human FSH receptor (Homo sapiens, UniProt P23945)
T1 construct: expressed in transfected cells; host or cells: Chinese Hamster Ovary (CHO) cells
T1 sequence (P23945 18-695): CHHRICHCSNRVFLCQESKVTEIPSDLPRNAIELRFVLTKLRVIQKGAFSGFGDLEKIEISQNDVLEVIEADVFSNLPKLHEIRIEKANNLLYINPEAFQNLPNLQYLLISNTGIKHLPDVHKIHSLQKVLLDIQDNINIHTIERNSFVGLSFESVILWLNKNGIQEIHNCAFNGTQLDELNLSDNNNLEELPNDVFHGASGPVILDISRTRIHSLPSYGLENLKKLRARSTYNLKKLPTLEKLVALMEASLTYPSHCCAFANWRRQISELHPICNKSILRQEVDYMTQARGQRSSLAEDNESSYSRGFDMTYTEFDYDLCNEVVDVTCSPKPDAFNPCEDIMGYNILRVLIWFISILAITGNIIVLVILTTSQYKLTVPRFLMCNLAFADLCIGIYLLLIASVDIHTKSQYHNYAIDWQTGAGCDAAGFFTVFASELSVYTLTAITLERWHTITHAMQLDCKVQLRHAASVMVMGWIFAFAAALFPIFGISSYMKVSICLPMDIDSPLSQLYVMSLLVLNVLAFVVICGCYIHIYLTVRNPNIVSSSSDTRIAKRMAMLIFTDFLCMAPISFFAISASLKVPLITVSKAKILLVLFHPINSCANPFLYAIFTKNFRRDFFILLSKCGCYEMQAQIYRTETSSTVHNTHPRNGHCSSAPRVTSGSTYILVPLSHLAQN
Assay: Agonistic activity at the human FSH receptor expressed in CHO cells (CRE-luciferase reporter)
Assay type: cell-based
Settings: CHO cells stably transfected with human FSH receptor and CRE/luciferase reporter; tested 0.1 nM to 10 μM; read-out: EC50 (concentration of test compound causing half-maximal (50%) luciferase stimulation)
Experimental: Agonistic Activity of Compounds at the Human FSH Receptor Expressed in CHO Cells
Agonist activity of the compounds at the human FSH receptor was tested in Chinese Hamster Ovary (CHO) cells stably transfected with the human FSH receptor and cotransfected with a cAMP responsive element (CRE)/promotor directing the expression of a firefly luciferase reporter gene. Binding of the compound to the Gscoupled FSH receptor will result in an increase of cAMP, which in turn will induce an increased transactivation of the luciferase reporter construct. The luciferase activity was quantified using a luminescence counter. The compounds were tested in the concentration range of 0.1 nM to 10 μM. This assay was used to determine the EC50 (concentration of test compound causing half-maximal (50%) luciferase stimulation) and efficacy of the compounds compared to recombinant human FSH. For this, the software program XLfit (Excel version 2.0, built 30, ID Business Solutions Limited) was used.

Question: For “4-(3-Bromo-5-ethoxy-4-{3-[(1H-imidazol-4-ylmethyl)-amino]-benzyloxy}-phenyl)-2-methyl-5-oxo-7-propyl-1,4,5,6,7,8-hexahydro-quinoline-3-carbonitrile [Example 39]”, which EC50 is on record?
Answer: < 10 nM

— patent US8022218B2, “4-phenyl-5-oxo-1,4,5,6,7,8-hexahydroquinoline derivatives for the treatment of infertility” (N.V. Organon, priority 2005, dated 2011)
